The record followed here is article PMC4154870, “The Cofilin Phosphatase Slingshot Homolog 1 (SSH1) Links NOD1 Signaling to Actin Remodeling” (PLoS Pathogens, 2014).

Protein sequences, listed by entry. Tags and fused reporters are not part of them.
UniProt Q9HC29: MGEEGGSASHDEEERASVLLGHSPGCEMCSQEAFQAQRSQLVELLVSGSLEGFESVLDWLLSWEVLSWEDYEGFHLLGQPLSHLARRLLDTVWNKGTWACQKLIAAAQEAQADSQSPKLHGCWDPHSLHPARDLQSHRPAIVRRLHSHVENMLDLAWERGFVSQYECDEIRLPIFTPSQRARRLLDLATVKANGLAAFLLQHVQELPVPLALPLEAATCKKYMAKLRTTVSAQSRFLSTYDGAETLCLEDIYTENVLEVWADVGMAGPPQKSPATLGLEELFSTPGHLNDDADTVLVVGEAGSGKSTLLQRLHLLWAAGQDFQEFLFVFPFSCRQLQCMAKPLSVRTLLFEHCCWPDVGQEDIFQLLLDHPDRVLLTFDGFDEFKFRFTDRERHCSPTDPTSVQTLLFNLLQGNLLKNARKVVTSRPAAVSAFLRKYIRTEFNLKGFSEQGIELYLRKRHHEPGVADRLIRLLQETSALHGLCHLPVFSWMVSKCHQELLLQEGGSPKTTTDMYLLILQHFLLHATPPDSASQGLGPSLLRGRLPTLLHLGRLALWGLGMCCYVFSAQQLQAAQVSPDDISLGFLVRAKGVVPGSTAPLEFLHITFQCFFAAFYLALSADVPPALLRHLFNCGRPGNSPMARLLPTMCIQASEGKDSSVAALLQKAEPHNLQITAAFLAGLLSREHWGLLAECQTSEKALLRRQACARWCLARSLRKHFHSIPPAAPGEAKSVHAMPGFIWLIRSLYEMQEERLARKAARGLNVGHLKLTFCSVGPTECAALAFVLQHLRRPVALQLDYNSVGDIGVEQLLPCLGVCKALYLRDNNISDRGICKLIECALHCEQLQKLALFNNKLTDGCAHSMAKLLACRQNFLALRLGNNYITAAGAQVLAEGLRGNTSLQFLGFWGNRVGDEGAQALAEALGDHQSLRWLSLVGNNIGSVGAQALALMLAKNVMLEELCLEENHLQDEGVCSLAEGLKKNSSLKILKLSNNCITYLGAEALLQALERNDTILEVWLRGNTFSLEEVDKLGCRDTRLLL

Where a chain is given by its changes, count along the chain named. No constants are given. Whether binding was seen depends on the method and setting. In cells and extracts the contact can be indirect. Some binding calls cover weakened binding; strength is not graded here. Tags and fused reporters may be left off the sequences shown.

In assay [1] the target is T1, Flag-SSH1 (slingshot homolog 1, cofilin phosphatase) (human) (UniProt Q8WYL5).
T1 sequence: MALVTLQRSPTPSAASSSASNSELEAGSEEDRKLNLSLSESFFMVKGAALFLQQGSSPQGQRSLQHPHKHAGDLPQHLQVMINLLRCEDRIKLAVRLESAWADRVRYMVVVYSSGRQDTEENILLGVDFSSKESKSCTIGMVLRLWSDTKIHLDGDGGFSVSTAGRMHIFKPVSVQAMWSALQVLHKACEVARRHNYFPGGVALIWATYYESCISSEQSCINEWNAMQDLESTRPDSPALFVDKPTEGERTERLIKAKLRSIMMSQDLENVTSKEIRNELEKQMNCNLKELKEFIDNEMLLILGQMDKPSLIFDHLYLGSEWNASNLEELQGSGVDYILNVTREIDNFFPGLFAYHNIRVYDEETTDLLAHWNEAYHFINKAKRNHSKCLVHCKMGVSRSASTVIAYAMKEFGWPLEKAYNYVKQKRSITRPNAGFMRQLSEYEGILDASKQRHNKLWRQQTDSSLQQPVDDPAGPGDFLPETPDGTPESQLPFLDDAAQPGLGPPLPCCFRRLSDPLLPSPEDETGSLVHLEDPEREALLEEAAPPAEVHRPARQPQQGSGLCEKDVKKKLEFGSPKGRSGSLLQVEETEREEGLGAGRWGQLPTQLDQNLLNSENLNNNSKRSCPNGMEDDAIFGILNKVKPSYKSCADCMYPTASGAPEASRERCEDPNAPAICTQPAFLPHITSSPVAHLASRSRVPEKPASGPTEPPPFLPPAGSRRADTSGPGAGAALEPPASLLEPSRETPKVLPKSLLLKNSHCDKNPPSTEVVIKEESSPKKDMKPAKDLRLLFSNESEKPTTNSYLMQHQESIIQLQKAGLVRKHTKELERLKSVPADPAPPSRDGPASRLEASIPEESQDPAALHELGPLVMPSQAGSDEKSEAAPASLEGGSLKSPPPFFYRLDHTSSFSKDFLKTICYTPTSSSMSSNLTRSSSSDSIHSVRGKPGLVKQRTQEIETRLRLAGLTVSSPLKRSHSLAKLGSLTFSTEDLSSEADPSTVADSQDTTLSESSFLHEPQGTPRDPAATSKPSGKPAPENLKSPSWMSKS
As to the kind of experiment: co-IP; HEK293T cells transiently transfected with SSH1 and NOD1 or NOD2 plasmids for 24 h; Flag-SSH1 precipitated with a Flag-specific antibody; also a kinetic with 500 nM TriDAP for the indicated times.

In assay [2] the target is T2, SSH1 C393S (phosphatase-dead mutant) (human) (UniProt Q8WYL5).
T2 sequence: T1 sequence with C393S
In words: proximity ligation; in situ PLA (Duolink) in transiently transfected HeLa cells, fixed 24 h after transfection; rabbit GFP-specific and mouse Flag-specific primary antibodies; spot area per cell quantified by automated microscopy.

For a further assay, the target named is T3, GFP-SSH1 (human, UniProt Q8WYL5 1-1049).
T3 construct: Slingshot homolog 1 (SSH1); also called EGFP-SSH1; WT SSH1; source: HeLa, transiently transfected, in fixed cells
T3 sequence (looked up): T1 sequence
The assay is described as above.

For the molecule “NOD2 (from UniProt Q9HC29 1-1040) (receptor)”, the binding entry in assay [1] is “binds”.

B1: NOD1 (myc tagged human NOD1) (receptor, UniProt Q9Y239 1-953)
chain: MEEQGHSEMEIIPSESHPHIQLLKSNRELLVTHIRNTQCLVDNLLKNDYFSAEDAEIVCACPTQPDKVRKILDLVQSKGEEVSEFFLYLLQQLADAYVDLRPWLLEIGFSPSLLTQSKVVVNTDPVSRYTQQLRHHLGRDSKFVLCYAQKEELLLEEIYMDTIMELVGFSNESLGSLNSLACLLDHTTGILNEQGETIFILGDAGVGKSMLLQRLQSLWATGRLDAGVKFFFHFRCRMFSCFKESDRLCLQDLLFKHYCYPERDPEEVFAFLLRFPHVALFTFDGLDELHSDLDLSRVPDSSCPWEPAHPLVLLANLLSGKLLKGASKLLTARTGIEVPRQFLRKKVLLRGFSPSHLRAYARRMFPERALQDRLLSQLEANPNLCSLCSVPLFCWIIFRCFQHFRAAFEGSPQLPDCTMTLTDVFLLVTEVHLNRMQPSSLVQRNTRSPVETLHAGRDTLCSLGQVAHRGMEKSLFVFTQEEVQASGLQERDMQLGFLRALPELGPGGDQQSYEFFHLTLQAFFTAFFLVLDDRVGTQELLRFFQEWMPPAGAATTSCYPPFLPFQCLQGSGPAREDLFKNKDHFQFTNLFLCGLLSKAKQKLLRHLVPAAALRRKRKALWAHLFSSLRGYLKSLPRVQVESFNQVQAMPTFIWMLRCIYETQSQKVGQLAARGICANYLKLTYCNACSADCSALSFVLHHFPKRLALDLDNNNLNDYGVRELQPCFSRLTVLRLSVNQITDGGVKVLSEELTKYKIVTYLGLYNNQITDVGARYVTKILDECKGLTHLKLGKNKITSEGGKYLALAVKNSKSISEVGMWGNQVGDEGAKAFAEALRNHPSLTTLSLASNGISTEGGKSLARALQQNTSLEILWLTQNELNDEVAESLAEMLKVNQTLKHLWLIQNQITAKGTAQLADALQSNTGITEICLNGNLIKPEEAKVYEDEKRIICF
For B1, the binding entry in assay [1] was “binds”.

B2: Flag-NOD1 (receptor, human, UniProt Q9Y239 1-953, looked up)
chain: B1 chain
notes: NOD1; the Flag-tagged plasmid is not described in the methods; source: HeLa, transiently transfected, in fixed cells
Turning to B2, the binding result (in assay [2]; with GFP-SSH1) was “binds” throughout.
